Screen size: about 340,000 compounds; about 170 (0.05%) were called active. The shares of active, inactive and inconclusive entries below differ from those in the screen. Calls come from the whole dose curve; as a rule, active = well fitted inhibition curve with a large enough effect in the signal ratio, with a control signal flat (not every such curve was filed as active); inconclusive = small, poorly fitted or top-dose-only effect, or effect the other way, or a change in a side signal; inactive = flat fitted curve, though single readings scatter; the % refers to the signal ratio. A potency beside an inconclusive call is a rough fit, not a confirmed value.
Assay: qHTS Assay to Find Inhibitors of Chronic Active B-Cell Receptor Signaling;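 for activity change, negative = inhibition: plate controls were basal doxycycline-induced cells for no effect and cells given 10 µM MG132 for full effect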
Conditions: ABC-DLBCL IkBa-CBG/CBR reporter, luminescence ratio (green luciferase fused to IkBa over red control in TMD8 lymphoma cells), 4 h; activity change, negative = inhibition: at 46.1 µM (top of the series) unless noted
How it was run: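 TMD8 ABC-DLBCL cells carrying doxycycline-inducible green luciferase fused to IkappaBalpha plus unfused red luciferase were exposed to compounds (up to 46 uM) for 4 hrs at 37C. Activity came from the overlap-corrected green/red luminescence ratio.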
Potency is the fitted concentration of half-maximal effect.

Structure (SMILES) | activity change, negative = inhibition | Potency
CCCc1ccc(OC(=O)c2sc3ncn(Cc4cccc(F)c4)c(=O)c3c2C)cc1 | inactive: -1.01% | –
CC(C)c1ccc(O)c(NC(=S)NC(=O)c2ccc3c(c2)OCO3)c1 | – | inconclusive: 25.1 µM [falling, single point]
O=C(NCCc1c[nH]c2ccccc12)c1cccc(Br)c1 | inconclusive: -13.5% | –
CC(C)CC(c1nnnn1C(C)C)N1CCN(c2cccc(Cl)c2)CC1 (centres undefined) | inconclusive: 4.09% | –
CN(C)N1C(N)=C(C#N)C(c2cccc3ccccc23)C2=C1CC(c1ccccc1)CC2=O (centres undefined) | inconclusive: 1.22% | –
CCCCN(C(=O)Nc1ccc(OCC)cc1)C1CCN(C(C)=O)CC1 | – | inconclusive: 0.708 µM [rising, full curve, poor fit]
O=C(NNC(=S)NC(=O)c1ccco1)c1ccc(F)cc1 | – | inconclusive: 3.16 µM [falling, partial curve]
CCOC(CCNC(=O)CCC(=O)Nc1ccc2nc(N3CCN(C)CC3)cc(C)c2c1)OCC | inconclusive: -0.404% | –
O=C(NNC(=S)Nc1ccc(F)cc1)c1cccc([N+](=O)[O-])c1 | inconclusive: -7.72% | –
Cc1ccc(S(=O)(=O)CCC(=O)OCC(=O)Nc2ccc(N3CCOCC3)cc2)cc1 | – | inconclusive: 20.6 µM [falling, single point]
c1ccc(-c2nnc(SCc3cn4ccsc4n3)o2)cc1 | inconclusive: -17.1% | –
O=C(NCCN1CCN(Cc2ccccc2)CC1)C1c2ccccc2C(=O)N2CCc3ccccc3C12 (centres undefined) | inactive: 6.25% | –
COCCCNCCOCCOc1ccc(C)cc1[N+](=O)[O-] | inconclusive: -8.86% | –
COc1cccc(NC(=O)C(NCC(C)(C)CN(C)C)c2ccccc2)c1 (centres undefined) | inconclusive: 20% | –
CCOC(=O)c1cc2cc(CC(=O)c3ccc(OCC)cc3O)ccc2o1 | inconclusive: 15.9% | –
CC(C)(C)c1cc(C(=O)NNC(=O)Nc2cccc(Cl)c2)n(Cc2ccccc2)n1 | inactive: -2.64% | –
CC(C)c1ccc(/C=C2\SC(=O)N(CC(=O)NC3CCS(=O)(=O)C3)C2=O)cc1 (centres undefined) | – | inconclusive: 35.5 µM [falling, partial curve, poor fit]
COc1ccccc1CN(Cc1cc2cc3c(cc2[nH]c1=O)OCCO3)Cc1nnnn1Cc1ccco1 | – | inconclusive: 8.91 µM [falling, partial curve, poor fit]
O=C(CSc1nnc(CNc2ccccc2)o1)N1CCCc2ccccc21 | inactive: 16.5% | –
O=C(NCCC1=CCCCC1)c1ccc([N+](=O)[O-])cc1 | inconclusive: 9.94% | –
CS(=O)(=O)Oc1ccc2c(c1)O/C(=C\c1cccnc1)C2=O | inconclusive: -7.73% | –

Structure (SMILES) | activity change, negative = inhibition | Potency
N#Cc1c(/N=C/c2cc3ccccc3s2)sc2c1CCC2 | inactive: 17.3% | –
O=c1oc2ccccc2c(O)c1Cc1cc(Cl)c2cccnc2c1O | inconclusive: 493% | –
O=C(OCCCc1cc2ccccc2c(=O)o1)c1ccc2c(c1)OCO2 | inconclusive: -0.0066% | –
O=C1c2ccccc2C(Nc2ccc(S(=O)(=O)N3CCOCC3)cc2)N1Cc1ccco1 (centres undefined) | inconclusive: 0.799% | –
OCCCCNCc1ccc(OCc2ccc(Cl)cc2Cl)cc1 | inconclusive: -12.5% | –
CCOC(=O)c1c(C)[nH]c(C(=O)COC(=O)CNS(=O)(=O)c2ccc(C)cc2)c1C | inactive: -5.8% | –
COc1ccc(S(=O)(=O)N2CCC(C(=O)NCCC(=O)Nc3cccc(Cl)c3)CC2)cc1 | inactive: 5.23% | –
Cc1ccc(SCCNC(=O)CN2C(=O)c3ccccc3S2(=O)=O)cc1 | inconclusive: 0.281% | –
O=[N+]([O-])c1cccc(-c2n[nH]c(=S)n2Cc2ccccc2)c1 | inactive: 0.786% | –
OC(COc1ccc(CN2CCCCO2)cc1)CN1CCCCC1 (centres undefined) | inactive: 6.9% | –
O=[N+]([O-])c1ccc(N2CCSCC2)cc1 | inconclusive: 26.1% | –
O=C(O)CSc1nc(SCc2ccccc2Cl)nc2c1CCCC2 | – | inconclusive: 29.1 µM [rising, single point]
Clc1ccc(-c2noc(CSc3nnc(-c4ccncc4)n3-c3ccccc3)n2)cc1 | inconclusive: 6.85% | –
CCOP(=O)(OCC)C(Nc1ccccc1)c1cccnc1 (centres undefined) | inactive: 0.801% | –
O=C(CSc1nnc(-c2ccc(S(=O)(=O)N3CCOCC3)cc2)o1)c1ccccc1F | inconclusive: 2.84% | –
O=C(c1cccc(C(=O)N2CCN(Cc3ccccc3)CC2)c1)N1CCN(Cc2ccccc2)CC1 | inactive: 2.7% | –
Cc1c(Cl)cccc1NC(=O)c1cc(C2CC2)on1 | – | inconclusive: 35.5 µM [falling, partial curve, poor fit]
COc1cc2nc(C3CCC3)nc(N3CCN(c4ccccc4OC)CC3)c2cc1OC | inconclusive: -6.99% | –
O=C1/C(=C\c2ccc(O)cc2)SC(=S)N1Cc1ccccc1 | inconclusive: 1.78% | –
O=C(OCC(=O)N1CCN(C(=O)c2ccco2)CC1)c1cccc(O)c1 | inconclusive: -2.05% | –
COc1cccc(NC(=O)CN2CCN(CC(=O)Nc3ccc(F)cc3)CC2)c1 | inactive: -7.67% | –

Quoted from the listing (2 entries):
Structure (SMILES) | activity change, negative = inhibition | Potency
O=C(O)CSc1nc(SCc2ccccc2Cl)nc2c1CCCC2 | – | inconclusive: 29.1 µM [rising, single point]
Clc1ccc(-c2noc(CSc3nnc(-c4ccncc4)n3-c3ccccc3)n2)cc1 | inconclusive: 6.85% | –

(listing goes on)

Structure (SMILES) | activity change, negative = inhibition | Potency
COC(=O)c1cnn(C(=O)c2ccccc2Br)c1N | – | inconclusive: 7.08 µM [falling, partial curve, poor fit]
CCCCN(CCCC)S(=O)(=O)c1ccc(NC(=O)c2ccc([N+](=O)[O-])cc2Cl)cc1 | inactive: 15.5% | –
CCSc1nnc(-c2cccc(S(=O)(=O)N(CC)CC)c2)n1Cc1ccccc1 | inconclusive: -0.664% | –
Cc1ccccc1N1C(=O)CC(N2CCN(C(=O)c3ccco3)CC2)C1=O (centres undefined) | inconclusive: 3.08% | –
O=C(Nc1nncs1)c1ccc(Br)c(S(=O)(=O)N2CCCC2)c1 | inactive: 4.94% | –
COc1ccc(N2CC(=O)N(c3ccccc3)C2=S)cc1 | – | inconclusive: 14.6 µM [falling, partial curve]
Cc1ccccc1OCC(=O)N/N=C/c1ccncc1 | inactive: -8.13% | –
O=C1NCCCC1C(=O)N/N=C/c1ccc(Cl)cc1 (centres undefined) | inconclusive: -3.32% | –
Cn1c(=O)c(Nc2ccc(Cl)cc2)c2c3c(cccc31)C(=O)c1ccccc1-2 | – | inconclusive: 0.282 µM [falling, full curve]
Cn1c(=O)c(C(=S)NC(=O)C2CC2)c(N)n(Cc2ccccc2)c1=O | inactive: -4.71% | –
O=C(COC(=O)c1cc(-c2cccs2)nc2ccccc12)NCc1ccco1 | inconclusive: 6.18% | –
COc1cc(OC)cc(C(=O)NC(=S)Nc2ccc3[nH]c(=O)[nH]c3c2)c1 | inconclusive: -23.9% | –
Cc1cc(NC(=O)COC(=O)Cn2c(C)csc2=O)ccc1Br | inconclusive: -5.13% | –
CCC(=O)N1N=C(c2cccs2)CC1c1ccc(OC)cc1 (centres undefined) | inactive: 5% | –
COc1ccc(NC(=S)NC(=O)/C=C/c2ccco2)c(OC)c1 | inactive: -5.97% | –
Cc1ccc(C(C)C)c(OCc2ccc(-c3nnco3)cc2)c1 | inactive: 0.961% | –
Cc1ccc(C(c2cc(Cl)c3cccnc3c2O)N2CCN(C)CC2)cc1 (centres undefined) | inactive: -2.69% | –
CCN(C(=O)C1CCCN(c2nc(-c3ccc(OC)cc3)no2)C1)c1ccc(OC)cc1 (centres undefined) | inconclusive: 3.79% | –
CN(C)c1ccc(/C=N/n2cnn(Cc3ccccc3Cl)c2=S)cc1 | inconclusive: 2.05% | –
O=C(Cc1ccc(Cl)cc1)N1CCN(c2ccccc2)CC1 | inactive: 6.87% | –
COc1ccc(C2=NN(C)C(=NCc3ccccc3)SC2)cc1 | inconclusive: 13.2% | –

Structure (SMILES) | activity change, negative = inhibition | Potency
CCNc1ccc(S(=O)(=O)N(C)C)cc1NCC(=O)Nc1c(F)cccc1F | inconclusive: -17.6% | –
CC1=CC(C)(C)Nc2ccc(OS(=O)(=O)c3ccc(C)cc3)cc21 | inconclusive: 10.4% | –
COc1ccc2cc(CCNC(=O)c3ccco3)c(=O)[nH]c2c1 | inconclusive: -13.1% | –
CSc1nc(N)nc(SCC(=O)C(C)(C)C)c1C#N | – | inconclusive: 2.59 µM [rising, partial curve, poor fit]
COc1cc2c(cc1OC)C1C(C(=O)Nc3ccccc3N3CCN(C)CC3)c3ccccc3C(=O)N1CC2 (centres undefined) | inconclusive: -17% | –
S=c1[nH]c(-c2ccc(Br)cc2)cn1CCc1ccccc1 | inconclusive: 0.377% | –
Cc1ccnc(NC(=O)c2cnc(Cl)c(Cl)c2)c1 | – | inconclusive: 1 µM [rising, full curve, poor fit]
Cn1c(SCC(=O)NCc2ccc(F)cc2)nc2ccccc21 | inactive: -7.5% | –
CC1CCN(C(=O)CS(=O)(=O)Cc2ccccc2)CC1 | inconclusive: 1.24% | –
Fc1ccc(CN2CCN(c3ncccn3)CC2)cc1 | inactive: 0.924% | –
CC1=CC(=O)C=C(C)C1=NOc1ccc([N+](=O)[O-])cc1 | inconclusive: 5.76% | –
O=C(NC(=S)Nc1ccc(S(=O)(=O)Nc2ncccn2)cc1)c1cccc(Br)c1 | – | inconclusive: 11.2 µM [falling, partial curve, poor fit]
CC(=O)Nc1cccc(C(=O)OC(C(=O)c2ccc(C)c(C)c2)c2ccccc2)c1 (centres undefined) | inactive: 17.1% | –
O=C(NCCc1ccccc1)c1nc2ncccn2n1 | – | inconclusive: 32.6 µM [falling, single point]
Cc1ccc(C)c(NC(=O)CSc2n[nH]c(-c3ccncc3)n2)c1 | inconclusive: 17.1% | –
CN(C)c1ccc(NC(=S)c2ccccn2)cc1 | – | inconclusive: 5.8 µM [falling, single point]
O=C(N/N=C/c1ccco1)c1cc(-c2cccc(Br)c2)nc2ccccc12 | inactive: 3.12% | –
Brc1ccc2ncnc(NCc3cccnc3)c2c1 | inconclusive: 4.87% | –
O=C(Nc1ncc(Cc2cccc(Cl)c2)s1)c1ccc([N+](=O)[O-])cc1 | inactive: -16.2% | –
COc1ccc(NC(=O)CSc2nc3sc(C)cc3c(=O)n2C)cc1 | inconclusive: -0.248% | –
Cc1c(NC(=O)C2(c3ccc(Cl)cc3)CCCC2)c(=O)n(-c2ccccc2)n1C | inconclusive: -0.239% | –

A different layout for part of the listing above:
CC(C)c1ccc(/C=C2\SC(=O)N(CC(=O)NC3CCS(=O)(=O)C3)C2=O)cc1 (centres undefined)
  Potency: inconclusive: 35.5 µM [falling, partial curve, poor fit]
CCC(=O)N1N=C(c2cccs2)CC1c1ccc(OC)cc1 (centres undefined)
  activity change, negative = inhibition: inactive: 5%

Reference: PubChem BioAssay AID493014 (National Center for Advancing Translational Sciences (NCATS), 2011)
